Reference: the M2OR odorant receptor database
Only a part is listed here, and it is no random draw. The calls were merged from several studies; some rest on single wells. The list shows a part of the results.

Chains of the proteins cited; added tags and fusions are not shown. A line that says so, or that is headed by a name, gives the form on record, which may keep a tag or linker.
UniProt Q8VG28, as listed by the source: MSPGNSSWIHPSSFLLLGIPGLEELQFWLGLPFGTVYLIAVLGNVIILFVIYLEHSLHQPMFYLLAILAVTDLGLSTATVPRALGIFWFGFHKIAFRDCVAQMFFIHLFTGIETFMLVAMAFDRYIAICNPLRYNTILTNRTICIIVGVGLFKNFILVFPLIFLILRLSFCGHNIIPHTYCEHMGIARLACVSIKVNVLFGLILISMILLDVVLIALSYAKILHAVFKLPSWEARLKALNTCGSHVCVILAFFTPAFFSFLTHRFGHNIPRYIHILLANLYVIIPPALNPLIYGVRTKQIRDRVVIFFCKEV
UniProt Q8VGE3, as listed by the source: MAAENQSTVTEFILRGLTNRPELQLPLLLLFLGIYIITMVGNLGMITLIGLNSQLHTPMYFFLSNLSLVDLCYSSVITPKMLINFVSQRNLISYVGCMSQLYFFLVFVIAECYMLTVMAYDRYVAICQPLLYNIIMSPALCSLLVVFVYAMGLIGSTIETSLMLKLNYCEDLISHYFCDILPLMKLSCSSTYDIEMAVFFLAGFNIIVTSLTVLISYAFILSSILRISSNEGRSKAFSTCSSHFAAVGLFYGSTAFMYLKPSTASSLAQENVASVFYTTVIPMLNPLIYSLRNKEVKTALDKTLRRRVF
UniProt Q8VGK6, as listed by the source: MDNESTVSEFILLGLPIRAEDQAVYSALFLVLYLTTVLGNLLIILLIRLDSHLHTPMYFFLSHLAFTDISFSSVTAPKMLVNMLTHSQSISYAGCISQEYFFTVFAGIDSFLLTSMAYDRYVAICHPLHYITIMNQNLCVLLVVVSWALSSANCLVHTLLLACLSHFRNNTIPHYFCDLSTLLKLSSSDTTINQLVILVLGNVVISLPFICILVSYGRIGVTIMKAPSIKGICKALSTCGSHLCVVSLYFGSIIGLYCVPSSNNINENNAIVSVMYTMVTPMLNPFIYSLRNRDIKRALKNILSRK

What was measured:
Conditions in all cases: stereoisomer not certain
UniProt Q8VG28 = target: UniProt Q8VG28
Method in brief: (§1)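 Each entry records the cell line, G-protein, co-transfected protein and tags used. Methods varied with the source, often transient luciferase assays in mammalian cell lines. A receptor–molecule pair is called responsive (active) if the original authors judged its signal statistically different from baseline and non-responsive (inactive) otherwise.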

UniProt Q8VG49 = target: T1, UniProt Q8VG49
T1 sequence (whole entry): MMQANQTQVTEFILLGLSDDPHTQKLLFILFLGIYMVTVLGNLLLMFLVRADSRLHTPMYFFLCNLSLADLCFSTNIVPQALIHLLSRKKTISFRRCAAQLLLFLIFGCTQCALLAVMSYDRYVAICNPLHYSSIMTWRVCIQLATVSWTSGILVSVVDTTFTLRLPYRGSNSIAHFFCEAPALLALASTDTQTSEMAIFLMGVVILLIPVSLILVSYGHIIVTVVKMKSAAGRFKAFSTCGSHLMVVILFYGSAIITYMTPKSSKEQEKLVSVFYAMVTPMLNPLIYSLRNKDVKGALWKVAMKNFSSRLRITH
Method in brief: as §1

UniProt Q8VG53 = target: T2, UniProt Q8VG53
T2 sequence (whole entry): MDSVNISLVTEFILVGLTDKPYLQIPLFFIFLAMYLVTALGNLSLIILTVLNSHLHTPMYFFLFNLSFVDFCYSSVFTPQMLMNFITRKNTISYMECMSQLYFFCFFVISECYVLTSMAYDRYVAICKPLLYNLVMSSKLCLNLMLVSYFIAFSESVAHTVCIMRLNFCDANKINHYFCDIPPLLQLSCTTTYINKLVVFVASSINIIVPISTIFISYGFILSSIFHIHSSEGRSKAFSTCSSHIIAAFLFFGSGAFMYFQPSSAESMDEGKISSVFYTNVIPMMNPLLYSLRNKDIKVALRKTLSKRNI
Method in brief: as §1

UniProt Q8VG64 = target: T3, UniProt Q8VG64
T3 sequence (whole entry): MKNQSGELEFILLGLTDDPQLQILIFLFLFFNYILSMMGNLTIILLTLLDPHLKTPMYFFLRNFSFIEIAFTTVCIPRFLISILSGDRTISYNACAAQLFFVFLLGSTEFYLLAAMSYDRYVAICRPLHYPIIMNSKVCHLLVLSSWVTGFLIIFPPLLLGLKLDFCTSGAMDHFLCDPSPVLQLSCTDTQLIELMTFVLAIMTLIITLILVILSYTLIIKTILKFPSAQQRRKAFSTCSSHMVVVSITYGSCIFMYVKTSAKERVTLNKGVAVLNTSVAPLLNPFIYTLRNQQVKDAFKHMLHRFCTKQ
Method in brief: as §1

UniProt Q8VG77 = target: T4, UniProt Q8VG77
T4 sequence (whole entry): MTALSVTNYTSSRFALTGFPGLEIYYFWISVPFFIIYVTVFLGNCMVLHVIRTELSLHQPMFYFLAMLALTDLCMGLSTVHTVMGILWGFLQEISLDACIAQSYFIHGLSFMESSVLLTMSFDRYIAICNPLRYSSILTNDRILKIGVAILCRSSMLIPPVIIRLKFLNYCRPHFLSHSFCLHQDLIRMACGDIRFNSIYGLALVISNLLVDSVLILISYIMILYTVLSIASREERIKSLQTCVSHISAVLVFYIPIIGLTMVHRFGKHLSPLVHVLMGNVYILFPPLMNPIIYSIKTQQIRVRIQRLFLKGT
Method in brief: as §1

UniProt Q8VG96 = target: T5, UniProt Q8VG96
T5 sequence (whole entry): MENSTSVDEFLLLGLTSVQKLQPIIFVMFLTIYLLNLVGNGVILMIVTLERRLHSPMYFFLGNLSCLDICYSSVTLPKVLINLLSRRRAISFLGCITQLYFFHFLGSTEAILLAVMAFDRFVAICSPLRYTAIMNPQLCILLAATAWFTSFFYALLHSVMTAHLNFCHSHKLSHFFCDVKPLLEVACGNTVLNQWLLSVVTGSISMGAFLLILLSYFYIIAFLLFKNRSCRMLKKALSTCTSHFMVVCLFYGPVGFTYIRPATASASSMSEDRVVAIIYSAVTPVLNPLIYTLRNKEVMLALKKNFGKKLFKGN
Method in brief: as §1

UniProt Q8VGB9 = target: T6, UniProt Q8VGB9
T6 sequence (whole entry): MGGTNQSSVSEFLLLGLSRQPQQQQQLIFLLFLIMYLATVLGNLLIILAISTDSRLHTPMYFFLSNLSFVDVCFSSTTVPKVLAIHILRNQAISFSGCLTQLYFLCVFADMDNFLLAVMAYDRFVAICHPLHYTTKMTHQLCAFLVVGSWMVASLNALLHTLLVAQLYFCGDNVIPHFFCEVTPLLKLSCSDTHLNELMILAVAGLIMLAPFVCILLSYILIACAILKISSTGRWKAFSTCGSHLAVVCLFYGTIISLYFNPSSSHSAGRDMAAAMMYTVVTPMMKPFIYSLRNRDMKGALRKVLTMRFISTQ
Method in brief: as §1

UniProt Q8VGC6 = target: T7, UniProt Q8VGC6
T7 sequence (whole entry): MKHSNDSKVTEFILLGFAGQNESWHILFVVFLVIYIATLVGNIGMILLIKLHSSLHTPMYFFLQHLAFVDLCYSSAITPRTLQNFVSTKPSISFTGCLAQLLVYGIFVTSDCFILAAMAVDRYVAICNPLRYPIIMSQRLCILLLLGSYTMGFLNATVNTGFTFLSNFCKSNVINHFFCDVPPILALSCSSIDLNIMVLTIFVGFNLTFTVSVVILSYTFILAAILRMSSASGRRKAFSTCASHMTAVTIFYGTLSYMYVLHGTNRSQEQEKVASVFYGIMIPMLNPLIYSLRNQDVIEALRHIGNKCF
Method in brief: as §1

UniProt Q8VGD7 = target: T8, UniProt Q8VGD7
T8 sequence (whole entry): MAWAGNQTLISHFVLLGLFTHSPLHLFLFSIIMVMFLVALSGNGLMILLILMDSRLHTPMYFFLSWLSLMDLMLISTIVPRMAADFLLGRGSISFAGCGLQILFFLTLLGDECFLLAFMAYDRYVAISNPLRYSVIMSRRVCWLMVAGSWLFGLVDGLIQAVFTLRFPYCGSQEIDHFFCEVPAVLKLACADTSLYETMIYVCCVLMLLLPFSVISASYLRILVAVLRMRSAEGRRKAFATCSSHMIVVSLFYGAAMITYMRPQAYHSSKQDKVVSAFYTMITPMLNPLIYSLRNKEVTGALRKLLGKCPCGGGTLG
Method in brief: as §1

UniProt Q8VGE3 = target: UniProt Q8VGE3
Method in brief: as §1

UniProt Q8VGH1 = target: T9, UniProt Q8VGH1
T9 sequence (whole entry): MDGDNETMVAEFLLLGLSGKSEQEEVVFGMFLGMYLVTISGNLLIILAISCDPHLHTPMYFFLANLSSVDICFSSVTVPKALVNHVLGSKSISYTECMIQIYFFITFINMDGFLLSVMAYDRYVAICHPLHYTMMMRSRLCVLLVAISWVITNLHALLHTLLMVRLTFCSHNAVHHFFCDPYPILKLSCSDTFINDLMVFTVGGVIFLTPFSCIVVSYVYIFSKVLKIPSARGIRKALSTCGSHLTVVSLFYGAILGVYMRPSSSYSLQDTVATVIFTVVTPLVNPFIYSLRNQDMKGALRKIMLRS
Method in brief: as §1

UniProt Q8VGJ1 = target: T10, UniProt Q8VGJ1
T10 sequence (whole entry): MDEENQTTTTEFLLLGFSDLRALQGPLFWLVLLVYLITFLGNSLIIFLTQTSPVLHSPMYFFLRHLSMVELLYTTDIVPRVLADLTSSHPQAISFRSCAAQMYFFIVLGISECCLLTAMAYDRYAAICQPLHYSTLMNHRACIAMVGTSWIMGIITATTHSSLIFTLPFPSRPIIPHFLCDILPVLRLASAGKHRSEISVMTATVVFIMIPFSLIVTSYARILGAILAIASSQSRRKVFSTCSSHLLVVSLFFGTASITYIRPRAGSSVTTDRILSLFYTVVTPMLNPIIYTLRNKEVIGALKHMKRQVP
Method in brief: as §1

UniProt Q8VGJ3 = target: T11, UniProt Q8VGJ3
T11 sequence (whole entry): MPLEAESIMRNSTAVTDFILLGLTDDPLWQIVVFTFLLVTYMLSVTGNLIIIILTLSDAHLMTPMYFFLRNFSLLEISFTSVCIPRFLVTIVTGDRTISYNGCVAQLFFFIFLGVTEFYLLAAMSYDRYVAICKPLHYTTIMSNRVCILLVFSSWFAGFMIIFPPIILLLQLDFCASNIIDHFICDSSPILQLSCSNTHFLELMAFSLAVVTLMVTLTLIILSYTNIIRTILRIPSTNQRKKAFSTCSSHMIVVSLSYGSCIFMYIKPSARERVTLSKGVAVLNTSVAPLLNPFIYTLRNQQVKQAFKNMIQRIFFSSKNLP
Method in brief: as §1

UniProt Q8VGJ5 = target: T12, UniProt Q8VGJ5
T12 sequence (whole entry): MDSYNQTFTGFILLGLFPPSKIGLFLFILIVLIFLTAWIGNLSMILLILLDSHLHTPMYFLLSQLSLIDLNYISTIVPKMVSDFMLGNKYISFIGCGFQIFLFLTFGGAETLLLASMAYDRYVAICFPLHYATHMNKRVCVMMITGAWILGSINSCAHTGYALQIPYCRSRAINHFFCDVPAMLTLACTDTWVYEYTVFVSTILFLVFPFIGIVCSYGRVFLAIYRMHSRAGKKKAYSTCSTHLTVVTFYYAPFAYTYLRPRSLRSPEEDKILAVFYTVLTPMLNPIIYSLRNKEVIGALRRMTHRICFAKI
Method in brief: as §1

UniProt Q8VGK6 = target: UniProt Q8VGK6
Method in brief: as §1

UniProt Q8VGL0 = target: T13, UniProt Q8VGL0
T13 sequence (whole entry): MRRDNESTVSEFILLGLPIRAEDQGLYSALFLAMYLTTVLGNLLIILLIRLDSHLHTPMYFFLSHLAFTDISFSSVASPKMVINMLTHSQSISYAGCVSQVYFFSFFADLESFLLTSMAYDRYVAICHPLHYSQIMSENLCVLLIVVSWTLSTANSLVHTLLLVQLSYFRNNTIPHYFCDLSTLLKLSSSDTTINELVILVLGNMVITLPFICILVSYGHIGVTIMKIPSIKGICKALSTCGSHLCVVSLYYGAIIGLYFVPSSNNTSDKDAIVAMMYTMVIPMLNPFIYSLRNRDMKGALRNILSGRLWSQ
Method in brief: as §1

UniProt Q8VGL7 = target: T14, UniProt Q8VGL7
T14 sequence (whole entry): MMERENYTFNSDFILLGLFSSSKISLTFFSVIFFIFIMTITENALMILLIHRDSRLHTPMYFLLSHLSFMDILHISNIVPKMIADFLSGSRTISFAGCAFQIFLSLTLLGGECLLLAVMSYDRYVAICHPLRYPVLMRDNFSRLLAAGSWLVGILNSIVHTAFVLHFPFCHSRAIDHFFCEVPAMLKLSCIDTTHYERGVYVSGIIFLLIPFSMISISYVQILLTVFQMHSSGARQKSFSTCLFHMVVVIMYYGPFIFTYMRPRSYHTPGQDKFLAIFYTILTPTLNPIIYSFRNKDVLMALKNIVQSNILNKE
Method in brief: as §1

UniProt Q8VGM2 = target: T15, UniProt Q8VGM2
T15 sequence (whole entry): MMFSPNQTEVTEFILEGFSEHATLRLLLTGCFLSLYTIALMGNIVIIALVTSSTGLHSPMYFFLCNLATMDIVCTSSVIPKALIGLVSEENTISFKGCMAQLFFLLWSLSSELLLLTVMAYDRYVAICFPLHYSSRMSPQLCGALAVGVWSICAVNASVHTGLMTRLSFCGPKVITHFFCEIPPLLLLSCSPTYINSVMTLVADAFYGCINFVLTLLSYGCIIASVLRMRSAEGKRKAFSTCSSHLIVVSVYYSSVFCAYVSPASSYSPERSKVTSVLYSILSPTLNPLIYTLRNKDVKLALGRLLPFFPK
Method in brief: as §1

UniProt Q8VGP6 = target: T16, UniProt Q8VGP6
T16 sequence (whole entry): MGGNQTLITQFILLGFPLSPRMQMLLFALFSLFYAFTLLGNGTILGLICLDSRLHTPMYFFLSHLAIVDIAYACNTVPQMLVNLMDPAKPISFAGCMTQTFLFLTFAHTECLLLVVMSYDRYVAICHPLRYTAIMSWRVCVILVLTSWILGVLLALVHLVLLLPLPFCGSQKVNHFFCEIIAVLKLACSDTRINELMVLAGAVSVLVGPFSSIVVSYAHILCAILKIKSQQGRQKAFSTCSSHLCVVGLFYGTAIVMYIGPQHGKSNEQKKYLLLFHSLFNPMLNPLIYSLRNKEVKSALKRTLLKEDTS
Method in brief: as §1

UniProt Q8VGQ3 = target: T17, UniProt Q8VGQ3
T17 sequence (whole entry): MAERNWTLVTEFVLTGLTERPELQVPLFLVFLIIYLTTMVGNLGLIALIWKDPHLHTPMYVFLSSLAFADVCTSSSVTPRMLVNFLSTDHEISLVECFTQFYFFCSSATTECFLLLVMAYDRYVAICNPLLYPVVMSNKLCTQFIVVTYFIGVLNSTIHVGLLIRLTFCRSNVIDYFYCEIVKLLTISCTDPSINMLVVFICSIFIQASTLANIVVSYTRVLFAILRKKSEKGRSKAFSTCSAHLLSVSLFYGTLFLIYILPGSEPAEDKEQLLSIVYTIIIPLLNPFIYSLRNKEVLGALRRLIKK
Method in brief: as §1

Measured: odorant receptor agonist call

CC(=O)c1ccccc1
active: UniProt Q8VG96 | UniProt Q8VGE3 | UniProt Q8VGH1 | UniProt Q8VGJ5 | UniProt Q8VGK6
inactive: all other assays above

C=CCc1ccc(O)c(OC)c1
inactive: UniProt Q8VG28 | UniProt Q8VG53 | UniProt Q8VG64 | UniProt Q8VGB9 | UniProt Q8VGC6 | UniProt Q8VGJ3 | UniProt Q8VGL0

CCCCCC(=O)O
not listed: UniProt Q8VGE3 | UniProt Q8VGK6
inactive: all other assays above

COc1ccccc1O
inactive: UniProt Q8VG53 | UniProt Q8VG64 | UniProt Q8VGB9 | UniProt Q8VGC6 | UniProt Q8VGJ3 | UniProt Q8VGL0

CC(=O)OC1CC2CCC1(C)C2(C)C (stereo not given)
inactive: UniProt Q8VG53 | UniProt Q8VG64 | UniProt Q8VGC6 | UniProt Q8VGJ3 | UniProt Q8VGL0
active: UniProt Q8VGB9

CC(C)(O)CCCC1=CCC(C=O)CC1 (stereo not given)
not listed: UniProt Q8VG28 | UniProt Q8VGE3 | UniProt Q8VGK6
inactive: all other assays above

C=CCc1ccc(OC)c(OC)c1
inactive: UniProt Q8VG53 | UniProt Q8VG64 | UniProt Q8VGB9 | UniProt Q8VGC6 | UniProt Q8VGJ3 | UniProt Q8VGL0
